Measurements as given in the supplement of paper PMC10849652.
This is one part of the list.

By UniProt entry, the sequences of proteins in these tests, tags left out. Where a name states a change or a piece, a line headed by the entry shows the natural chain unless it says otherwise.
UniProt Q96EU6: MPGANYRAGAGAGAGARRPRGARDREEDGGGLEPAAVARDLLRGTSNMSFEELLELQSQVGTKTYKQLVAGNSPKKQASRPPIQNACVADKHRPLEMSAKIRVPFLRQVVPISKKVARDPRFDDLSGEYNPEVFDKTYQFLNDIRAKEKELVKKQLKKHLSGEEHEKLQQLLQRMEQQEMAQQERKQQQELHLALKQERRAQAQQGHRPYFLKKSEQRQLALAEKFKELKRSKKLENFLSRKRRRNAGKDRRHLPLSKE
UniProt Q96GA7: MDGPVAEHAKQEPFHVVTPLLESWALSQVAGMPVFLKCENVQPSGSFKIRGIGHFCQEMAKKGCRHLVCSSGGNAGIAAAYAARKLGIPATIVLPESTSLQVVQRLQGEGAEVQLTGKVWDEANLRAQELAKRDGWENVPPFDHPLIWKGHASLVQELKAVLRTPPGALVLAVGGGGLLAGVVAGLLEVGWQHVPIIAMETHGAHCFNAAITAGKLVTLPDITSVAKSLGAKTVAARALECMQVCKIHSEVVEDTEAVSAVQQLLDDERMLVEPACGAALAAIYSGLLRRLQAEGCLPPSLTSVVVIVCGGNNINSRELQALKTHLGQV
UniProt Q15424: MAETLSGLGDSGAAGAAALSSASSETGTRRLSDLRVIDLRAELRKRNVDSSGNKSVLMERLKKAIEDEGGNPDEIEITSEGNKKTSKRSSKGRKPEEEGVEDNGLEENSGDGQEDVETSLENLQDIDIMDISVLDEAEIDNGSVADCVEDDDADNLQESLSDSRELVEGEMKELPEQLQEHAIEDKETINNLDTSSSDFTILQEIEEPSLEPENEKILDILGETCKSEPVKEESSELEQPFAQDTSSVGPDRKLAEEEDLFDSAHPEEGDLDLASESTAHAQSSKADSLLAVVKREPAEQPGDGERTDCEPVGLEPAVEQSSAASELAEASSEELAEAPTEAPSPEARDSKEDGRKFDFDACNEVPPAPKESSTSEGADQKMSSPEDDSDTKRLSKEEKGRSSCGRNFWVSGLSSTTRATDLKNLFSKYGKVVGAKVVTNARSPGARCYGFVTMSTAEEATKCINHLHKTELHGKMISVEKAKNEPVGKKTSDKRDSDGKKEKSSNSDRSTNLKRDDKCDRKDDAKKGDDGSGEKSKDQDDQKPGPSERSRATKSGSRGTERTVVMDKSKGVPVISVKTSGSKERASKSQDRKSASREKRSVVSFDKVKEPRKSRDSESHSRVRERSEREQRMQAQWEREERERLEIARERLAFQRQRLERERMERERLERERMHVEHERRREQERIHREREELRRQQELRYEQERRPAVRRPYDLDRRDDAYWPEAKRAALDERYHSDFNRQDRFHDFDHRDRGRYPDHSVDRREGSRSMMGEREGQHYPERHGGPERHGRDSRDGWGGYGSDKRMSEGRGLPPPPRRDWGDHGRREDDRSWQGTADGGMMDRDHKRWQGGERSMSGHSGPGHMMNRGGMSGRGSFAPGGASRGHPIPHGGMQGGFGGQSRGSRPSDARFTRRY
UniProt Q8WVM8, whole entry, looked up: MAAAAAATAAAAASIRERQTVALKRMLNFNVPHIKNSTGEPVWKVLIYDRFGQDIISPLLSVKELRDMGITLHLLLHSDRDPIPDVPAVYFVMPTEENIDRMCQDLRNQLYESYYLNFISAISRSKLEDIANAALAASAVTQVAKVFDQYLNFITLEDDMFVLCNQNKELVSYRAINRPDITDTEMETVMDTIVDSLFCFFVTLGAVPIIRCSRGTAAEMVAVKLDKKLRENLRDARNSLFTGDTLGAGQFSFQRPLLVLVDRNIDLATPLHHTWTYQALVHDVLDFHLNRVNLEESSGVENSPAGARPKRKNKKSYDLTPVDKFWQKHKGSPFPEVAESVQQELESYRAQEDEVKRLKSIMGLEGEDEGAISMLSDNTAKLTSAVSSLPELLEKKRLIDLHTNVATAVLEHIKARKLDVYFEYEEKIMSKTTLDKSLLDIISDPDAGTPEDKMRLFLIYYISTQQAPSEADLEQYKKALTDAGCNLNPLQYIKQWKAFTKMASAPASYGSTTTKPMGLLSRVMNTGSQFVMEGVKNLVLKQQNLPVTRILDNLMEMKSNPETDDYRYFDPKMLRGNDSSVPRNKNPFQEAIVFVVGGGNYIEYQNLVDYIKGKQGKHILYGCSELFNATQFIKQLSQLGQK
UniProt O00422: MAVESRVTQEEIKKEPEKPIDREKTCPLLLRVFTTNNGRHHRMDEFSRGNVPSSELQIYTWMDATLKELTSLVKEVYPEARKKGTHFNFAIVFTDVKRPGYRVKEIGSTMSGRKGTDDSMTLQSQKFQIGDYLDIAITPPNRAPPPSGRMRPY
UniProt Q6PCB5: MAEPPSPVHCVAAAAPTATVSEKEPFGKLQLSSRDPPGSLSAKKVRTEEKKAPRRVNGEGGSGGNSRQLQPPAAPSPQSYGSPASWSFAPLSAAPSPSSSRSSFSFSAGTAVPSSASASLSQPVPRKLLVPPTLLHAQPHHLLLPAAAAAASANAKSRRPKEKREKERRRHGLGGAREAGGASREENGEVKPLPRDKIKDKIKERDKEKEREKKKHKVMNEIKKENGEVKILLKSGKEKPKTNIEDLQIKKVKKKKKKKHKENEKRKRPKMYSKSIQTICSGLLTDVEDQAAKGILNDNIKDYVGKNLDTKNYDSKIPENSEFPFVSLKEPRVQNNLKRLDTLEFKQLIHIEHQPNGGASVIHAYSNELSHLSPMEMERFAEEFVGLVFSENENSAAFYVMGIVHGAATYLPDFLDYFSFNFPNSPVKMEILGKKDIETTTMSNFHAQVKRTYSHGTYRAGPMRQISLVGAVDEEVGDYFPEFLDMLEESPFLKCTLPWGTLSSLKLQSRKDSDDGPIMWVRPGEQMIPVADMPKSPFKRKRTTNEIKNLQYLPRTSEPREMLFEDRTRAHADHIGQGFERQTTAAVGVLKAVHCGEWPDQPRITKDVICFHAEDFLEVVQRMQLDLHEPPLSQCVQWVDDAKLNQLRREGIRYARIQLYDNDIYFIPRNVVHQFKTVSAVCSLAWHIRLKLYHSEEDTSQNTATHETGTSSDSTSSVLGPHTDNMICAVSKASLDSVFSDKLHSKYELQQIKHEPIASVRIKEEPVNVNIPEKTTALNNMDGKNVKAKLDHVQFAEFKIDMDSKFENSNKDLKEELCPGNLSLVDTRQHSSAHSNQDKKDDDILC
UniProt Q6NW29: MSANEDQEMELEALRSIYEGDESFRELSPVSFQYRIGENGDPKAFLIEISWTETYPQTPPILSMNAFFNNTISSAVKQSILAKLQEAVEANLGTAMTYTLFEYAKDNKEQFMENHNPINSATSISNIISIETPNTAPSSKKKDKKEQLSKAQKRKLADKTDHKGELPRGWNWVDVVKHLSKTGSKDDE
UniProt Q99584: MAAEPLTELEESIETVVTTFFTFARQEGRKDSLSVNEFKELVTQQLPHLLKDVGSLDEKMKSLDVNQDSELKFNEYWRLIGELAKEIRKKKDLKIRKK
UniProt Q9Y6U3: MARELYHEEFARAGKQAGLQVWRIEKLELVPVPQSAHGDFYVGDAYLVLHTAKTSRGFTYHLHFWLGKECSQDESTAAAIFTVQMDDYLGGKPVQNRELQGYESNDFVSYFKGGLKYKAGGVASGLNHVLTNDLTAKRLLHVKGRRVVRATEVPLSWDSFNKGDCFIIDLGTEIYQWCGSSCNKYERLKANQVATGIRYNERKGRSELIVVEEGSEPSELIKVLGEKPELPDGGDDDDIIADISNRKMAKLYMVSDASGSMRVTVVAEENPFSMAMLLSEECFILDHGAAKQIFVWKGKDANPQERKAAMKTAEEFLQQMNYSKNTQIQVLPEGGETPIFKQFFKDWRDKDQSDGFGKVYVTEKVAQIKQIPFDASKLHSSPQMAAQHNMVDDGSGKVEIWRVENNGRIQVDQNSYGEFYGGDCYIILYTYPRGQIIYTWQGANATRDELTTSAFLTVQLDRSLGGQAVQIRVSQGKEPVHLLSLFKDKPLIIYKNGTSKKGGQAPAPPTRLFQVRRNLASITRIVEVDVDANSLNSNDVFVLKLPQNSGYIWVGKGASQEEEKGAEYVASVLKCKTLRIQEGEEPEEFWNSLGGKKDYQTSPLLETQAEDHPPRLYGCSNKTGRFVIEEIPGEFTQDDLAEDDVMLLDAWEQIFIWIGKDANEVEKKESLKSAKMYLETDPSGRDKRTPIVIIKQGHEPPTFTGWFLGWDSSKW
UniProt Q15050: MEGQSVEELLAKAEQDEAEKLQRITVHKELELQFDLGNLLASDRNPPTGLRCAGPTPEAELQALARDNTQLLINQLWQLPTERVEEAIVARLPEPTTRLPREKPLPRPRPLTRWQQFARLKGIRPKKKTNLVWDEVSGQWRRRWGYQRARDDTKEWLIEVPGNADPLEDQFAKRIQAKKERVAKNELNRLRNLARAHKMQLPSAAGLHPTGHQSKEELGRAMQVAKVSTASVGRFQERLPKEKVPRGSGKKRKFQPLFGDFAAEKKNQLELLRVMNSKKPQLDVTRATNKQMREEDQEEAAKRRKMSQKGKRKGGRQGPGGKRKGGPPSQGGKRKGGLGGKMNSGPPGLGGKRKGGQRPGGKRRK
UniProt Q8WWV3: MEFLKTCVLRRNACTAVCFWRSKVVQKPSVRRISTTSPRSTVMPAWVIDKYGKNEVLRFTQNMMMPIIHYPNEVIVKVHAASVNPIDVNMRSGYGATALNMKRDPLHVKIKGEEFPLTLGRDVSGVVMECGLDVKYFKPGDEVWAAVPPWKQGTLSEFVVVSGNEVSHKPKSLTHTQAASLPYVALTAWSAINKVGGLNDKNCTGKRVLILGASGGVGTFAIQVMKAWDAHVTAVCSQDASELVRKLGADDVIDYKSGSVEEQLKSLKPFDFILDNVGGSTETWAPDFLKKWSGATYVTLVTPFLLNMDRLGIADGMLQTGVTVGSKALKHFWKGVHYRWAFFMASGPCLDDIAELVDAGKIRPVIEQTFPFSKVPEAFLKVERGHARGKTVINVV
UniProt Q8N488: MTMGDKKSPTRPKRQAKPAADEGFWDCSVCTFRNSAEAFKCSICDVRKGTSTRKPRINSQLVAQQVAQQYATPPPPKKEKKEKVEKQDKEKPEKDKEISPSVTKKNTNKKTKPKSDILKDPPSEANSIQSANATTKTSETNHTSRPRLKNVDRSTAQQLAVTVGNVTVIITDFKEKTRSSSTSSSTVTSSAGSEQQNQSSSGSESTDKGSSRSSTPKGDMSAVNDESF
UniProt O95197: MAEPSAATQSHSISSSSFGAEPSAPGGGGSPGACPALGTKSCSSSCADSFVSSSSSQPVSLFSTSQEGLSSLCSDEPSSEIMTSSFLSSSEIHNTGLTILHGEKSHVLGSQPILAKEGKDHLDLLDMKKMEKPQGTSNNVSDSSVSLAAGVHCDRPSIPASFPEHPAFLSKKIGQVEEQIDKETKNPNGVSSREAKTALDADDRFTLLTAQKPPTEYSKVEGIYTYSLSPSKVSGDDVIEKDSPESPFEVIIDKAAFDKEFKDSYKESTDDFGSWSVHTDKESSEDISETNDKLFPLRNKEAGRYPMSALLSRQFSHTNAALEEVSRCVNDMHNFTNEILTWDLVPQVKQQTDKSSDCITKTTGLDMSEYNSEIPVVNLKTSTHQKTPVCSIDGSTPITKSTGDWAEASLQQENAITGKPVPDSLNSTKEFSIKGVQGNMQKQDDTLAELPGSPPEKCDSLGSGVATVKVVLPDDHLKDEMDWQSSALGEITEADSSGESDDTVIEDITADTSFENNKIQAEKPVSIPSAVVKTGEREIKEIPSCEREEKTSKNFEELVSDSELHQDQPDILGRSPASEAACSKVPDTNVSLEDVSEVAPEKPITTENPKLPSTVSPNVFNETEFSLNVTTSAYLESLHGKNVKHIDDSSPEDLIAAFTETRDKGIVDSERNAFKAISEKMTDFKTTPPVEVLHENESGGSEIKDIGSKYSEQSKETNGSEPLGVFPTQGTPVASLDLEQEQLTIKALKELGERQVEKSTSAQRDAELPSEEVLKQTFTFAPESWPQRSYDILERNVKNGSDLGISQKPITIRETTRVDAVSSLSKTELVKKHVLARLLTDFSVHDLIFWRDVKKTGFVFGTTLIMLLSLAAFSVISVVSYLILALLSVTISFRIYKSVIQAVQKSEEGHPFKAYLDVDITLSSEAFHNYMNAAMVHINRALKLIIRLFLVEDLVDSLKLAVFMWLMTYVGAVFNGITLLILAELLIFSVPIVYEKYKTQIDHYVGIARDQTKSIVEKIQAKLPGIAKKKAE

Tests used:
Test in all cases: log2 fold change, soluble protein after heating vs DMSO (PISA); higher = thermal stabilisation; K562 cells, 10 uM, 30 min; active = over 0.2 and 3.5 SD of the protein, either way, in both replicates (recomputed)
bafetinib = compound: Cc1ccc(NC(=O)c2ccc(CN3CC[C@H](N(C)C)C3)c(C(F)(F)F)c2)cc1Nc1nccc(-c2cncnc2)n1 [bafetinib]
Procedure, shortened: (§1)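 Thermal stability values are relative to control samples and come from duplicates. They are expressed as log2 fold changes. For measurement, K562 cells (2×10^6 cells/mL) received 10 μM compound for 30 min, and aliquots were heated for 3 min over 48°C-58°C, pooled, and extracted at 4°C in PBS with 0.5% NP-40. Soluble protein, the supernatant after 21,000xg for 90 min, was quantified by TMTpro 16plex LC-MS/MS with equalised channel sums.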

[1] = compound: Cc1cccc(CC(=O)N2CCc3c2ccc(-c2cn(C)c4ncnc(N)c24)c3F)n1
Procedure, shortened: as §1

nilotinib = compound: Cc1cn(-c2cc(NC(=O)c3ccc(C)c(Nc4nccc(-c5cccnc5)n4)c3)cc(C(F)(F)F)c2)cn1 [nilotinib]
Procedure, shortened: as §1

[2] = compound: Cc1nc(Nc2n[nH]c3c2CN(C(=O)N[C@H](CN(C)C)c2ccccc2)C3(C)C)c2sccc2n1
Procedure, shortened: as §1

dasatinib = compound: Cc1nc(Nc2ncc(C(=O)Nc3c(C)cccc3Cl)s2)cc(N2CCN(CCO)CC2)n1 [dasatinib]
Procedure, shortened: as §1

[3] = compound: Cc1ncc(-c2ccnc(Nc3ccc(S(C)(=O)=O)cc3)n2)n1C(C)C
Procedure, shortened: as §1

[4] = compound: Cn1cc(-c2ccc3c(c2)CCN3C(=O)Cc2cccc(C(F)(F)F)c2)c2c(N)ncnc21
Procedure, shortened: as §1

[5] = compound: Cn1cc(-c2ccc3nnc(C(F)(F)c4ccc5ncccc5c4)n3n2)cn1
Procedure, shortened: as §1

tipifarnib = compound: Cn1cncc1[C@@](N)(c1ccc(Cl)cc1)c1ccc2c(c1)c(-c1cccc(Cl)c1)cc(=O)n2C [tipifarnib]
Procedure, shortened: as §1

mubritinib = compound: FC(F)(F)c1ccc(/C=C/c2nc(COc3ccc(CCCCn4ccnn4)cc3)co2)cc1 [mubritinib]
Procedure, shortened: as §1

[6] = compound: NC(=O)Nc1cc(-c2cccc(F)c2)sc1C(=O)N[C@H]1CCCNC1
Procedure, shortened: as §1

[7] = compound: NC(=O)c1cnc(N[C@@H]2CCCC[C@@H]2N)nc1Nc1cccc(-n2nccn2)c1
Procedure, shortened: as §1

[8] = compound: NC1(c2ccc(-c3nc4ccn5c(=O)[nH]nc5c4cc3-c3ccccc3)cc2)CCC1
Procedure, shortened: as §1

[9] = compound: NCC(=O)Nc1ccc(-n2nc(C(F)(F)F)cc2-c2ccc3c(ccc4ccccc43)c2)cc1
Procedure, shortened: as §1

entinostat = compound: Nc1ccccc1NC(=O)c1ccc(CNC(=O)OCc2cccnc2)cc1 [entinostat]
Procedure, shortened: as §1

vorinostat = compound: O=C(CCCCCCC(=O)Nc1ccccc1)NO [vorinostat]
Procedure, shortened: as §1

citarinostat = compound: O=C(CCCCCCNC(=O)c1cnc(N(c2ccccc2)c2ccccc2Cl)nc1)NO [citarinostat]
Procedure, shortened: as §1

silmitasertib = compound: O=C(O)c1ccc2c(c1)nc(Nc1cccc(Cl)c1)c1ccncc12 [silmitasertib]
Procedure, shortened: as §1

[10] = compound: O=C1NC(=O)C(c2cnc3ccccn23)=C1c1cn2c3c(cc(F)cc13)CN(C(=O)N1CCCCC1)CC2
Procedure, shortened: as §1

[11] = compound: c1cc(OCCN2CCCCC2)cc(-c2n[nH]c3ccc(-c4nnc[nH]4)cc23)c1
Procedure, shortened: as §1

Measured: log2 fold change

RRP36 (UniProt Q96EU6)
inactive: bafetinib 0.428 | [1] 0.054 | nilotinib -0.007 | [2] 0.203 | dasatinib 0.164 | [3] -0.011 | [4] -0.319 | [5] -0.016 | tipifarnib 0.208 | mubritinib -0.132 | [6] 0.115 | [7] 0.108 | [8] 0.271 | [9] 0.098 | entinostat -0.073 | vorinostat -0.024 | citarinostat -0.04 | silmitasertib 0.143 | [10] 0.264 | [11] -0.118

SDSL (UniProt Q96GA7)
inactive: bafetinib -0.057 | [1] -0.042 | nilotinib 0.026 | [2] 0.018 | dasatinib 0.033 | [3] -0.039 | [4] 0.004 | [5] 0.009 | tipifarnib 0.103 | mubritinib 0.063 | [6] -0.015 | [7] 0.043 | [8] -0.033 | [9] 0.116 | entinostat 0.017 | vorinostat -0.008 | citarinostat 0.032 | silmitasertib -0.002 | [10] -0.036 | [11] -0.01

SAFB isoform 3 (UniProt Q15424)
inactive: bafetinib 0.157 | [1] 0 | nilotinib 0.027 | [2] 0.065 | dasatinib 0.247 | [3] -0.098 | [4] 0.034 | [5] -0.08 | tipifarnib 0.121 | mubritinib -0.147 | [6] 0.051 | [7] 0.024 | [8] 0.384 | [9] -0.107 | entinostat -0.033 | vorinostat -0.016 | citarinostat -0.067 | silmitasertib 0.152 | [10] 0.101 | [11] -0.035

SCFD1 (UniProt Q8WVM8)
inactive: bafetinib -0.018 | [1] 0.029 | nilotinib -0.03 | [2] -0.037 | dasatinib -0.136 | [3] 0.002 | [4] 0.018 | [5] 0.015 | tipifarnib -0.022 | mubritinib 0.084 | [6] 0.047 | [7] -0.038 | [8] -0.06 | [9] -0.064 | entinostat 0.017 | vorinostat 0.043 | citarinostat 0.049 | silmitasertib -0.008 | [10] 0.002 | [11] -0.034

SAP18 isoform 2 (UniProt O00422)
inactive: bafetinib 0.073 | [1] -0.089 | nilotinib 0.062 | [2] 0.031 | dasatinib 0.201 | [3] 0.029 | [4] -0.165 | [5] -0.145 | tipifarnib 0.097 | mubritinib -0.069 | [6] 0.042 | [7] -0.067 | [8] 0.245 | [9] -0.062 | entinostat -0.156 | vorinostat -0.031 | citarinostat -0.055 | silmitasertib 0.182 | [10] 0.135 | [11] -0.014

RSL1D1 (UniProt O76021)
inactive: bafetinib 0.288 | [1] -0.027 | nilotinib 0.117 | [2] 0.109 | dasatinib 0.239 | [3] 0.264 | [4] -0.427 | [5] -0.18 | tipifarnib 0.15 | mubritinib -0.244 | [6] -0.001 | [7] 0.207 | [8] 0.339 | [9] 0.188 | entinostat -0.133 | vorinostat -0.016 | citarinostat -0.105 | silmitasertib 0.329 | [10] 0.409 | [11] -0.265

RSBN1L (UniProt Q6PCB5)
inactive: bafetinib 0.226 | [1] -0.08 | nilotinib 0.113 | [2] 0.241 | dasatinib 0.284 | [3] -0.084 | [4] -0.376 | [5] -0.136 | tipifarnib 0.293 | mubritinib -0.177 | [6] 0.13 | [7] 0.029 | [8] 0.205 | [9] 0.19 | entinostat -0.02 | vorinostat 0.056 | citarinostat -0.035 | silmitasertib 0.26 | [10] 0.198 | [11] -0.09

Quoted from the listing (2 entries):
SAFB isoform 3 (UniProt Q15424)
inactive: bafetinib 0.157 | [1] 0 | nilotinib 0.027 | [2] 0.065 | dasatinib 0.247 | [3] -0.098 | [4] 0.034 | [5] -0.08 | tipifarnib 0.121 | mubritinib -0.147 | [6] 0.051 | [7] 0.024 | [8] 0.384 | [9] -0.107 | entinostat -0.033 | vorinostat -0.016 | citarinostat -0.067 | silmitasertib 0.152 | [10] 0.101 | [11] -0.035

SCFD1 (UniProt Q8WVM8)
inactive: bafetinib -0.018 | [1] 0.029 | nilotinib -0.03 | [2] -0.037 | dasatinib -0.136 | [3] 0.002 | [4] 0.018 | [5] 0.015 | tipifarnib -0.022 | mubritinib 0.084 | [6] 0.047 | [7] -0.038 | [8] -0.06 | [9] -0.064 | entinostat 0.017 | vorinostat 0.043 | citarinostat 0.049 | silmitasertib -0.008 | [10] 0.002 | [11] -0.034

Next results.

RWDD4 (UniProt Q6NW29)
inactive: bafetinib -0.129 | [1] 0.032 | nilotinib 0.223 | [2] 0.006 | dasatinib -0.076 | [3] -0.101 | [4] 0 | [5] 0.07 | tipifarnib -0.012 | mubritinib 0.028 | [6] -0.031 | [7] -0.12 | [8] -0.109 | [9] -0.027 | entinostat 0.011 | vorinostat 0.03 | citarinostat 0.044 | silmitasertib -0.004 | [10] 0.055 | [11] -0.022

RSF1 (UniProt Q96T23)
inactive: bafetinib 0.117 | [1] -0.027 | nilotinib 0.087 | [2] -0.102 | dasatinib -0.082 | [3] -0.096 | [4] 0.046 | [5] 0.079 | tipifarnib -0.222 | mubritinib 0.237 | [6] -0.17 | [7] -0.078 | [8] -0.246 | [9] -0.198 | entinostat 0.073 | vorinostat 0.028 | citarinostat -0.087 | silmitasertib 0.04 | [10] -0.182 | [11] 0.081

S100A13 (UniProt Q99584)
inactive: bafetinib -0.063 | [1] -0.048 | nilotinib 0.007 | [2] 0.007 | dasatinib -0.034 | [3] -0.041 | [4] 0.091 | [5] 0.061 | tipifarnib -0.105 | mubritinib 0.071 | [6] -0.02 | [7] -0.077 | [8] -0.061 | [9] -0.021 | entinostat 0.011 | vorinostat 0.016 | citarinostat 0.008 | silmitasertib -0.023 | [10] -0.044 | [11] -0.033

SCIN (UniProt Q9Y6U3)
inactive: bafetinib 0.085 | [1] 0.044 | nilotinib -0.009 | [2] -0.069 | dasatinib -0.092 | [3] 0.027 | [4] 0.052 | [5] -0.041 | tipifarnib -0.049 | mubritinib 0.028 | [6] -0.075 | [7] -0.224 | [8] 0.003 | [9] -0.011 | entinostat 0.022 | vorinostat 0.173 | citarinostat 0.004 | silmitasertib 0.033 | [10] -0.035 | [11] -0.067

RRS1 (UniProt Q15050)
inactive: bafetinib 0.121 | [1] -0.125 | nilotinib -0.024 | [2] 0.073 | dasatinib 0.161 | [3] 0.267 | [4] -0.431 | [5] -0.165 | tipifarnib 0.105 | mubritinib -0.226 | [6] 0.06 | [7] 0.143 | [8] 0.233 | [9] 0.211 | entinostat -0.087 | vorinostat -0.063 | citarinostat -0.081 | silmitasertib 0.291 | [10] 0.438 | [11] -0.107

RTN4IP1 (UniProt Q8WWV3)
inactive: bafetinib -0.178 | [1] -0.07 | nilotinib 0.171 | [2] -0.194 | dasatinib 0.189 | [3] -0.008 | [4] 0.121 | [5] 0.168 | tipifarnib 0.041 | mubritinib 0.122 | [6] -0.057 | [7] -0.218 | [8] -0.085 | [9] -0.024 | entinostat 0.009 | vorinostat 0.111 | citarinostat 0.316 | silmitasertib 0.069 | [10] 0.079 | [11] -0.198

RYBP (UniProt Q8N488)
inactive: bafetinib -0.104 | [1] -0.06 | nilotinib 0.107 | [2] -0.095 | dasatinib 0.119 | [3] -0.039 | [4] -0.039 | [5] 0.064 | tipifarnib 0.139 | mubritinib 0.094 | [6] -0.015 | [7] 0.044 | [8] 0.04 | [9] 0.013 | entinostat -0.011 | vorinostat -0.095 | citarinostat 0.021 | silmitasertib 0.079 | [10] -0.053 | [11] -0.055

SCARB2 (UniProt Q14108)
inactive: bafetinib -0.153 | [1] -0.064 | nilotinib 0.047 | [2] 0.018 | dasatinib 0.067 | [3] -0.006 | [4] 0.03 | [5] -0.009 | tipifarnib 0.023 | mubritinib -0.011 | [6] -0.011 | [7] 0.035 | [8] -0.084 | [9] 0.128 | entinostat 0.033 | vorinostat -0.056 | citarinostat 0.026 | silmitasertib 0.045 | [10] 0.025 | [11] 0.116

RTN3 (UniProt O95197)
inactive: bafetinib -0.049 | [1] -0.075 | nilotinib -0.022 | [2] 0.024 | dasatinib -0.038 | [3] -0.025 | [4] 0.067 | [5] 0.037 | tipifarnib 0.007 | mubritinib 0 | [6] 0.003 | [7] -0.044 | [8] -0.019 | [9] -0.003 | entinostat -0.012 | vorinostat -0.042 | citarinostat -0.023 | silmitasertib 0.013 | [10] -0.015 | [11] -0.008
